Assay results taken from the supplement of paper PMC6078165.

Tested on: MDAMB436
Experiment: relative JC-1 red fluorescence (viability) vs pre-drug, coculture with fibroblast (fraction); higher = more viable cancer cells
Experimental: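 JC-1 labelled TNBC cells cocultured 1:1 (1,500 cells each) with CellTrace Violet stained primary or stromal fibroblasts in 384-well plates in FluoroBrite medium, treated with one of 42 anticancer drugs at 0.1, 1, 10 or 100 uM. JC-1 red fluorescence (mitochondrial integrity in cancer cells only) was read by plate reader every 8 h for 72 h. Values are normalised to each well's pre-drug value. The stock of one drug was tenfold lower, so its dose labels may be too high.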

CCN(CC)CCNC(=O)c1c(C)[nH]c(/C=C2\C(=O)Nc3ccc(F)cc32)c1C [Sunitinib]
relative JC-1 red fluorescence
Conditions | 8 h | 16 h | 24 h | 32 h | 40 h | 48 h | 56 h | 64 h | 72 h
10 µM, coculture fibroblast: C12385 | 0.797 ± 0.022 | 0.747 ± 0.02 | 0.707 ± 0.016 | 0.641 ± 0.016 | 0.58379 ± 0.00052 | 0.545 ± 0.008 | 0.5064 ± 0.0025 | 0.467 ± 0.009 | 0.45 ± 0.0098
10 µM, coculture fibroblast: H6013 | 0.803 ± 0.032 | 0.774 ± 0.046 | 0.759 ± 0.073 | 0.738 ± 0.079 | 0.718 ± 0.067 | 0.708 ± 0.069 | 0.694 ± 0.058 | 0.662 ± 0.049 | 0.617 ± 0.051
10 µM, coculture fibroblast: H6019 | 0.813 ± 0.029 | 0.796 ± 0.024 | 0.79 ± 0.011 | 0.747 ± 0.016 | 0.73 ± 0.01 | 0.729 ± 0.03 | 0.708 ± 0.022 | 0.6811 ± 0.0049 | 0.6549 ± 0.0044
10 µM, coculture fibroblast: H6076 | 0.761 ± 0.11 | 0.653 ± 0.076 | 0.604 ± 0.071 | 0.555 ± 0.075 | 0.513 ± 0.071 | 0.471 ± 0.087 | 0.453 ± 0.086 | 0.431 ± 0.085 | 0.415 ± 0.1
10 µM, coculture fibroblast: H6231 | 0.772 ± 0.082 | 0.653 ± 0.031 | 0.583 ± 0.082 | 0.478 ± 0.082 | 0.422 ± 0.099 | 0.355 ± 0.11 | 0.322 ± 0.14 | 0.282 ± 0.14 | 0.256 ± 0.15
10 µM, coculture fibroblast: HADF | 0.754 ± 0.012 | 0.724 ± 0.013 | 0.668 ± 0.014 | 0.625 ± 0.014 | 0.5881 ± 0.0025 | 0.573 ± 0.0097 | 0.527 ± 0.012 | 0.507 ± 0.014 | 0.449 ± 0.0053
10 µM, coculture fibroblast: HCFa | 0.885 ± 0.1 | 0.84 ± 0.11 | 0.798 ± 0.058 | 0.78 ± 0.058 | 0.773 ± 0.06 | 0.768 ± 0.033 | 0.728 ± 0.023 | 0.718 ± 0.011 | 0.666 ± 0.01
10 µM, coculture fibroblast: HCPF | 0.776 ± 0.11 | 0.731 ± 0.094 | 0.681 ± 0.078 | 0.599 ± 0.085 | 0.55 ± 0.069 | 0.502 ± 0.067 | 0.45 ± 0.056 | 0.419 ± 0.058 | 0.393 ± 0.054
10 µM, coculture fibroblast: HHSteC | 0.865 ± 0.055 | 0.806 ± 0.011 | 0.772 ± 0.056 | 0.725 ± 0.095 | 0.692 ± 0.14 | 0.66 ± 0.15 | 0.606 ± 0.15 | 0.565 ± 0.17 | 0.516 ± 0.17
10 µM, coculture fibroblast: HMF | 0.739 ± 0.16 | 0.645 ± 0.1 | 0.572 ± 0.04 | 0.522 ± 0.041 | 0.468 ± 0.04 | 0.414 ± 0.043 | 0.378 ± 0.031 | 0.342 ± 0.033 | 0.324 ± 0.038
10 µM, coculture fibroblast: HPFa | 0.756 ± 0.081 | 0.813 ± 0.081 | 0.754 ± 0.029 | 0.73 ± 0.026 | 0.79 ± 0.14 | 0.787 ± 0.17 | 0.776 ± 0.2 | 0.69 ± 0.11 | 0.674 ± 0.14
10 µM, coculture fibroblast: HUF | 0.8518 ± 0.0031 | 0.803 ± 0.017 | 0.767 ± 0.022 | 0.71 ± 0.026 | 0.66 ± 0.032 | 0.615 ± 0.025 | 0.581 ± 0.018 | 0.555 ± 0.021 | 0.535 ± 0.037
10 µM, coculture fibroblast: Hs5 | 0.724 ± 0.08 | 0.666 ± 0.073 | 0.629 ± 0.047 | 0.552 ± 0.03 | 0.527 ± 0.029 | 0.463 ± 0.019 | 0.4567 ± 0.0013 | 0.419 ± 0.0086 | 0.398 ± 0.0043
10 µM, coculture fibroblast: Hs27A | 0.78 ± 0.1 | 0.867 ± 0.026 | 0.813 ± 0.026 | 0.807 ± 0.036 | 0.787 ± 0.037 | 0.837 ± 0.08 | 0.851 ± 0.15 | 0.834 ± 0.15 | 0.772 ± 0.16
10 µM, coculture fibroblast: Hs343T | 0.693 ± 0.08 | 0.626 ± 0.095 | 0.573 ± 0.084 | 0.517 ± 0.091 | 0.475 ± 0.091 | 0.424 ± 0.075 | 0.394 ± 0.088 | 0.376 ± 0.087 | 0.349 ± 0.093
10 µM, coculture fibroblast: WS1 | 0.784 ± 0.034 | 0.763 ± 0.011 | 0.756 ± 0.015 | 0.6637 ± 0.0046 | 0.60752 ± 0.00043 | 0.569 ± 0.0087 | 0.548 ± 0.023 | 0.511 ± 0.0083 | 0.486 ± 0.0072
100 µM, coculture fibroblast: C12385 | 0.577 ± 0.099 | 0.387 ± 0.04 | 0.375 ± 0.032 | 0.312 ± 0.029 | 0.281 ± 0.026 | 0.284 ± 0.013 | 0.259 ± 0.018 | 0.238 ± 0.0095 | 0.224 ± 0.011
100 µM, coculture fibroblast: H6013 | 0.508 ± 0.071 | 0.463 ± 0.091 | 0.45 ± 0.084 | 0.442 ± 0.056 | 0.436 ± 0.06 | 0.468 ± 0.045 | 0.422 ± 0.044 | 0.39 ± 0.035 | 0.339 ± 0.014
100 µM, coculture fibroblast: H6019 | 0.499 ± 0.08 | 0.427 ± 0.12 | 0.431 ± 0.096 | 0.384 ± 0.1 | 0.365 ± 0.096 | 0.365 ± 0.097 | 0.345 ± 0.097 | 0.325 ± 0.083 | 0.302 ± 0.082
100 µM, coculture fibroblast: H6076 | 0.407 ± 0.033 | 0.345 ± 0.025 | 0.368 ± 0.064 | 0.31 ± 0.079 | 0.263 ± 0.082 | 0.242 ± 0.1 | 0.23 ± 0.11 | 0.227 ± 0.12 | 0.227 ± 0.14
100 µM, coculture fibroblast: H6231 | 0.579 ± 0.18 | 0.383 ± 0.094 | 0.32 ± 0.049 | 0.26 ± 0.041 | 0.19265 ± 0.00013 | 0.169 ± 0.013 | 0.163 ± 0.037 | 0.16 ± 0.054 | 0.165 ± 0.067
100 µM, coculture fibroblast: HADF | 0.559 ± 0.023 | 0.441 ± 0.048 | 0.44 ± 0.063 | 0.423 ± 0.06 | 0.404 ± 0.062 | 0.426 ± 0.053 | 0.381 ± 0.05 | 0.353 ± 0.059 | 0.313 ± 0.062
100 µM, coculture fibroblast: HCFa | 0.631 ± 0.056 | 0.575 ± 0.043 | 0.565 ± 0.043 | 0.574 ± 0.037 | 0.553 ± 0.024 | 0.5849 ± 0.0042 | 0.518 ± 0.02 | 0.51 ± 0.028 | 0.438 ± 0.034
100 µM, coculture fibroblast: HCPF | 0.449 ± 0.023 | 0.418 ± 0.008 | 0.425 ± 0.0064 | 0.374 ± 0.024 | 0.313 ± 0.033 | 0.265 ± 0.048 | 0.245 ± 0.054 | 0.239 ± 0.077 | 0.224 ± 0.1
100 µM, coculture fibroblast: HHSteC | 0.539 ± 0.065 | 0.481 ± 0.05 | 0.465 ± 0.017 | 0.453 ± 0.017 | 0.432 ± 0.018 | 0.46 ± 0.028 | 0.4009 ± 0.0034 | 0.386 ± 0.013 | 0.326 ± 0.025
100 µM, coculture fibroblast: HMF | 0.482 ± 0.14 | 0.44 ± 0.14 | 0.465 ± 0.15 | 0.45 ± 0.14 | 0.412 ± 0.15 | 0.371 ± 0.15 | 0.357 ± 0.13 | 0.344 ± 0.11 | 0.32 ± 0.11
100 µM, coculture fibroblast: HPFa | 0.611 ± 0.026 | 0.4515 ± 0.0037 | 0.434 ± 0.01 | 0.419 ± 0.027 | 0.405 ± 0.032 | 0.425 ± 0.028 | 0.387 ± 0.029 | 0.364 ± 0.045 | 0.322 ± 0.053
100 µM, coculture fibroblast: HUF | 0.575 ± 0.15 | 0.396 ± 0.024 | 0.377 ± 0.0085 | 0.325 ± 0.011 | 0.287 ± 0.011 | 0.27 ± 0.019 | 0.246 ± 0.027 | 0.219 ± 0.027 | 0.204 ± 0.026
100 µM, coculture fibroblast: Hs5 | 0.449 ± 0.013 | 0.392 ± 0.048 | 0.392 ± 0.064 | 0.363 ± 0.048 | 0.304 ± 0.059 | 0.251 ± 0.077 | 0.231 ± 0.076 | 0.221 ± 0.1 | 0.216 ± 0.11
100 µM, coculture fibroblast: Hs27A | 0.503 ± 0.021 | 0.353 ± 0.031 | 0.372 ± 0.056 | 0.373 ± 0.069 | 0.369 ± 0.077 | 0.417 ± 0.087 | 0.378 ± 0.086 | 0.369 ± 0.093 | 0.347 ± 0.12
100 µM, coculture fibroblast: Hs343T | 0.388 ± 0.0057 | 0.334 ± 0.079 | 0.336 ± 0.099 | 0.306 ± 0.087 | 0.271 ± 0.12 | 0.248 ± 0.1 | 0.246 ± 0.12 | 0.242 ± 0.13 | 0.256 ± 0.13
100 µM, coculture fibroblast: WS1 | 0.519 ± 0.11 | 0.386 ± 0.08 | 0.381 ± 0.076 | 0.326 ± 0.068 | 0.305 ± 0.069 | 0.314 ± 0.06 | 0.285 ± 0.059 | 0.263 ± 0.055 | 0.256 ± 0.057

± gives the standard deviation of the averaged measurements. Values are relative to the signal before dosing, not to a vehicle control; the signal also falls without drug.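 Fibroblast labels denote human fibroblasts, mainly primary ones from uterus (C12385, HUF), lung (H6013), bone (Hs27A), adrenal (HADF) and skin (WS1), plus mammary HMF and breast cancer-associated Hs343T. Cancer cells are basal-like or mesenchymal-like triple-negative breast cancer lines. A hit is a response shift exceeding 3x replicate standard deviation. The tissue of the other fibroblasts is not given here.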
